Results reported in the supplement of paper PMC12823440, “Inhibitors supercharge kinase turnover through native proteolytic circuits” (Nature, 2025).
Structures can show the parent of a compound that is named as a salt. Some of the results follow. The calls rarely recur for the same compound in another form.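 Kinases, fused to nanoluciferase, were expressed in K562 cells; luminescence was measured every 4 h from 2 to 18 h as percent of control (DMSO = 100%, positive control = 0%). A time point is decreased if signal falls significantly (2 sigma). Hits were called by the authors by a rule that is not shown; the count of time points alone does not decide it.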

By UniProt entry, the sequences of proteins in these tests, tags left out. Where a name states a change or a piece, a line headed by the entry shows the natural chain unless it says otherwise.
UniProt Q8IWU2: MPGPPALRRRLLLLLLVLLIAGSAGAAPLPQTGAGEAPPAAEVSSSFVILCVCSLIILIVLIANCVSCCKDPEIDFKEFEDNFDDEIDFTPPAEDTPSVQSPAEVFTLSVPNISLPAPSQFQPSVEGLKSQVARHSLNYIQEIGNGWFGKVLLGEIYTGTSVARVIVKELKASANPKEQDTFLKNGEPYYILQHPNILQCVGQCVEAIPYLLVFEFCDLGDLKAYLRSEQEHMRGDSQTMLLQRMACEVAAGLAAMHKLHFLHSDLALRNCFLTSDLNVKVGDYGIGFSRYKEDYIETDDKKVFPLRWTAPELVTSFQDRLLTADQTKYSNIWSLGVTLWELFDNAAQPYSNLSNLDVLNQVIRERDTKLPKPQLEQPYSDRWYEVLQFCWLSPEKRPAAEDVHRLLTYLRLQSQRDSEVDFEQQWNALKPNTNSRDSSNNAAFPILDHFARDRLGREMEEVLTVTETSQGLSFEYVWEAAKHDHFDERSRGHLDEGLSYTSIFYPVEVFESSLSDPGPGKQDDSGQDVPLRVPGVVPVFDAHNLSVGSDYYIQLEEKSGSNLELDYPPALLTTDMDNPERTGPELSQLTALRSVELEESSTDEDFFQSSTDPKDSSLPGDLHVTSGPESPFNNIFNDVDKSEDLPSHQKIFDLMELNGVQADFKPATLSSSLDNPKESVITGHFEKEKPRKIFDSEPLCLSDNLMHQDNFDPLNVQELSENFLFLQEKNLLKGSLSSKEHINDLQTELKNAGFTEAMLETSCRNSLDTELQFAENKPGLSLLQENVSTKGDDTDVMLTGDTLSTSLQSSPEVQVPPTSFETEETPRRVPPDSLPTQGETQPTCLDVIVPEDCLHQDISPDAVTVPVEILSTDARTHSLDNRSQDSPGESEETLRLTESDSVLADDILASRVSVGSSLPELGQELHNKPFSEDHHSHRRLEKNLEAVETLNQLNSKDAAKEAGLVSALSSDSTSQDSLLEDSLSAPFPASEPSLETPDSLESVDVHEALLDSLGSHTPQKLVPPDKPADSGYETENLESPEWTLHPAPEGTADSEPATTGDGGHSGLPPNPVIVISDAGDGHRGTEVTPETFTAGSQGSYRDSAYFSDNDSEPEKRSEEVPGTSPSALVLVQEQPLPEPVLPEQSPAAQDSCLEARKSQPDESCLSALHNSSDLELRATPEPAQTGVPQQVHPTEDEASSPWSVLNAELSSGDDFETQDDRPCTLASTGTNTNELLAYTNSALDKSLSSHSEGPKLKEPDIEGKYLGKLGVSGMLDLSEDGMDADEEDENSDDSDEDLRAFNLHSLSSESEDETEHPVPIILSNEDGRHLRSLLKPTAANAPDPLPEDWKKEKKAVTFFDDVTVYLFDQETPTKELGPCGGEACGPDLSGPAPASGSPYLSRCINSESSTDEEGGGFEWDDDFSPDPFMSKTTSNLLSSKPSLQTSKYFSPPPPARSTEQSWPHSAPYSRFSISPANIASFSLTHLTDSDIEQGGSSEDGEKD
UniProt P07948: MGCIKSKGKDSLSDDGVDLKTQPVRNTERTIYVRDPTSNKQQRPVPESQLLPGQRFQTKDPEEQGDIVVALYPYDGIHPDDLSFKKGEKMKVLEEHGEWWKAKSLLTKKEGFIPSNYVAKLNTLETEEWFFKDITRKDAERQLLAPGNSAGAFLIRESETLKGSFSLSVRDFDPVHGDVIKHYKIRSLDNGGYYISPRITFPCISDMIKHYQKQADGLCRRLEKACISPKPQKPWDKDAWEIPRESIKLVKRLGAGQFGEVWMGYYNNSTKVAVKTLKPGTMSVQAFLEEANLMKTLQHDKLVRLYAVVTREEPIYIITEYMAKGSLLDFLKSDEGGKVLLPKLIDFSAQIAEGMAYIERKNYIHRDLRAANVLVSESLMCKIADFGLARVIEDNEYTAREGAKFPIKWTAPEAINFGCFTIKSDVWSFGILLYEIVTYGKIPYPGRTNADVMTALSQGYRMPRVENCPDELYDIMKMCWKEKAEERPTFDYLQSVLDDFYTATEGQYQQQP
UniProt Q12851: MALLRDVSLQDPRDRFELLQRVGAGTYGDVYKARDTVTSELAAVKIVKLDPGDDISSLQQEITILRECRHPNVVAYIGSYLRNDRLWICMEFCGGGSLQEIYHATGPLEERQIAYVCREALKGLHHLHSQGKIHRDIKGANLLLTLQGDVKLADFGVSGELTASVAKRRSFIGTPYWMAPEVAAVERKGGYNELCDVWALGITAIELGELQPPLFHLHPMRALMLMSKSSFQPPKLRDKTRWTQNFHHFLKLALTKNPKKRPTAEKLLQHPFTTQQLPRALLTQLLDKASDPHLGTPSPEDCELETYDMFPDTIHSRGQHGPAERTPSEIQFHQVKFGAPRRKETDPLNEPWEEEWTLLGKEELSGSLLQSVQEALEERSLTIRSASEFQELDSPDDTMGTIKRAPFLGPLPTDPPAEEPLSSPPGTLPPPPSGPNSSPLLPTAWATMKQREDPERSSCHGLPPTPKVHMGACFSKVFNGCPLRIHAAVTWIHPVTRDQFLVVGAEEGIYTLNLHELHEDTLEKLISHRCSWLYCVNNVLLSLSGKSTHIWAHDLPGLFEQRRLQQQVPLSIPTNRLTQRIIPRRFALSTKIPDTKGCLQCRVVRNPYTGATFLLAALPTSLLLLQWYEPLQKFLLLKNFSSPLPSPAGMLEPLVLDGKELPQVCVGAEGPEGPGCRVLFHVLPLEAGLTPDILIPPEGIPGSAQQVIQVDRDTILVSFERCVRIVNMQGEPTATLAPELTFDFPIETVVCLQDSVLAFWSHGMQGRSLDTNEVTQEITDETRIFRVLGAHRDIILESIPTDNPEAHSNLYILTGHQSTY
UniProt P28482, whole entry: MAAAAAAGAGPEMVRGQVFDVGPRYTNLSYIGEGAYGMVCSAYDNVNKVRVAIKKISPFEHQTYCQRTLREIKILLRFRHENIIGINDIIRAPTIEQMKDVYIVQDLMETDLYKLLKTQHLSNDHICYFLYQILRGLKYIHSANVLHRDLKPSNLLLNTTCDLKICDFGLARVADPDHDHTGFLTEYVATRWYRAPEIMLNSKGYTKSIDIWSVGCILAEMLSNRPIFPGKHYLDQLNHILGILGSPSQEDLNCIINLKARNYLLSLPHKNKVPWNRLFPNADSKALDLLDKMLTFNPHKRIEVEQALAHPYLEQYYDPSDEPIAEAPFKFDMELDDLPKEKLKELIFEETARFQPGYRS
UniProt P31152, whole entry: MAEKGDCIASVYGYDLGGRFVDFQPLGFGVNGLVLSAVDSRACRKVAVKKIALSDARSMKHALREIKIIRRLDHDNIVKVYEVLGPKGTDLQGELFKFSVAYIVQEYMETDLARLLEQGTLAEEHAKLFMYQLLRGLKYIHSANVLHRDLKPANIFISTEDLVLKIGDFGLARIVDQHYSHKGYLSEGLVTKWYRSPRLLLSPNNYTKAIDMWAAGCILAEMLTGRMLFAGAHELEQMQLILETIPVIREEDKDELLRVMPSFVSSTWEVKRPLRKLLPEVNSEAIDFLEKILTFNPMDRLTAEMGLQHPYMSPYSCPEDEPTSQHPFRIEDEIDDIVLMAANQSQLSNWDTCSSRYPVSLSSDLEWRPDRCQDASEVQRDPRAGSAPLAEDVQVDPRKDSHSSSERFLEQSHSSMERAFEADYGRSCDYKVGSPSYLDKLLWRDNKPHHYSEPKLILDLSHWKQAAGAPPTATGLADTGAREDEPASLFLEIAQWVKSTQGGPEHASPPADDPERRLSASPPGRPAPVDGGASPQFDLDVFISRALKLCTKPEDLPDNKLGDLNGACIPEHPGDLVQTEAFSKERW
UniProt P49137, whole entry, looked up: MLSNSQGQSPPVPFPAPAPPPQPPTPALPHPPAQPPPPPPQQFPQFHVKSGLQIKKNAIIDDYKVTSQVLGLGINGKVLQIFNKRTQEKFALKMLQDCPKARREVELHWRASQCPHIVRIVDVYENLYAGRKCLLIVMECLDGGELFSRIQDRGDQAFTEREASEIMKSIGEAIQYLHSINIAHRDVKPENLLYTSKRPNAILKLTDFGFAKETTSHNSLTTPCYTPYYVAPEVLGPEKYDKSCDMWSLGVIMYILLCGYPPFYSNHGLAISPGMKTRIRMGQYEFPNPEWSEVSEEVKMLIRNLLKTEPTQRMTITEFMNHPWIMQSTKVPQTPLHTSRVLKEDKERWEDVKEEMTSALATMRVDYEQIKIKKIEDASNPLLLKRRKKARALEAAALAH
UniProt Q9BUB5: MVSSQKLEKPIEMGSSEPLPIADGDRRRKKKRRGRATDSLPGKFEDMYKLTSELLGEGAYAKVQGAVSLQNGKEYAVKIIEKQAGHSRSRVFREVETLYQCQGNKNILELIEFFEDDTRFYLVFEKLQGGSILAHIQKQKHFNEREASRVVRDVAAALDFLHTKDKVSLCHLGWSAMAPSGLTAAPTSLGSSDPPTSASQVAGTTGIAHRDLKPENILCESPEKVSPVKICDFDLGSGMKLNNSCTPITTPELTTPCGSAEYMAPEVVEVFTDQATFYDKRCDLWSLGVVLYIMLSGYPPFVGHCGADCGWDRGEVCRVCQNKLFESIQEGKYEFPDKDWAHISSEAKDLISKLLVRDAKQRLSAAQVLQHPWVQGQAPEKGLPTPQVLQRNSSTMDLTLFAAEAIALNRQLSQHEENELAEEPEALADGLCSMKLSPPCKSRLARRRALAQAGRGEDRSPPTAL
UniProt Q16620, whole entry, looked up: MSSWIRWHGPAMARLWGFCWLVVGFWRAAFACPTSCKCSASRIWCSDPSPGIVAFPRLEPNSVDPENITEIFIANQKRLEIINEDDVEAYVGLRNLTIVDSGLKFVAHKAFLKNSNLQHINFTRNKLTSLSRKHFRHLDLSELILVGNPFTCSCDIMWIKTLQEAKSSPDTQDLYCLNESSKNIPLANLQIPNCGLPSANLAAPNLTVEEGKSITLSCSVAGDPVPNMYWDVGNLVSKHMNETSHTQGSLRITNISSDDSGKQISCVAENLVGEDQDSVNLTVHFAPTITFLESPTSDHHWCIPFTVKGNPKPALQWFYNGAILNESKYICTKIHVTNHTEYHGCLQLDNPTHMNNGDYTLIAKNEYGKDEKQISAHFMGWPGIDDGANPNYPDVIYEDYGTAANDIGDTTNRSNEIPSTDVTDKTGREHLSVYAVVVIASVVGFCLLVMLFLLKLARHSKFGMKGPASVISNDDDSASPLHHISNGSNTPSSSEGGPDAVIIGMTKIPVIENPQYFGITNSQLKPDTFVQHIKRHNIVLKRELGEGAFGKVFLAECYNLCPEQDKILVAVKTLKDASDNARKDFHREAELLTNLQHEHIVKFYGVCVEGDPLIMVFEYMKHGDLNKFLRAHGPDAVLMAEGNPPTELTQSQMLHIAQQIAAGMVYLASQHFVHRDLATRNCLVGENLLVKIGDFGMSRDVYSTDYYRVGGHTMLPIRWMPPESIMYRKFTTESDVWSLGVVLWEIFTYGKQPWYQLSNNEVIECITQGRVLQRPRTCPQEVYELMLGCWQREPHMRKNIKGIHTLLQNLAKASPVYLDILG

Tests used:
Assay in all cases: number of time points (of 5) at which kinase-Nluc abundance scored as decreased, DMSO-normalised (count); higher = more persistent destabilization
Conditions in all cases: K562; 2-18 h
[1] = biological target: LMTK2 (UniProt Q8IWU2)
[2] = biological target: LYN (UniProt P07948)
[3] = biological target: MAP2K1 (UniProt Q02750)
[4] = biological target: MAP2K2 (UniProt P36507)
[5] = biological target: MAP4K2 (UniProt Q12851)
[6] = biological target: MAPK1 (UniProt P28482)
[7] = biological target: MAPK4 (UniProt P31152)
[8] = biological target: MAPKAPK2 (UniProt P49137)
[9] = biological target: MKNK1 (UniProt Q9BUB5)
[10] = biological target: NTRK2 (UniProt Q16620)

Measured: number of time points

O=c1oc2c(C3OCCCO3)c(O)ccc2c2c1CNCC2 (10 µM)
0: [1] | [2] | [3] | [4] | [5] | [6] | [7] | [8] | [9] | [10]

Cc1cc(N2CCOCC2)cc2[nH]c(-c3c(NC[C@@H](O)c4cccc(Cl)c4)cc[nH]c3=O)nc12 (10 µM)
0: [1] | [2] | [3] | [4] | [5] | [6] | [7] | [8] | [10]
2: [9]

Oc1ccc(-c2nc(-c3ccc(F)cc3)c(-c3ccncc3)[nH]2)cc1 (2.5 µM)
0: [1] | [2] | [3] | [4] | [5] | [6] | [7] | [8] | [9] | [10]

O=c1c(-c2ccc(O)cc2)coc2cc(O)cc(O)c12 [Genistein] (10 µM)
0: [1] | [2] | [3] | [4] | [5] | [6] | [7] | [8] | [9] | [10]

Nc1nc(OCC2CCCCC2)c2[nH]cnc2n1 (10 µM)
0: [1] | [2] | [3] | [4] | [5] | [6] | [7] | [8] | [9] | [10]

CCCCC[C@H](O)CC(=O)CCc1ccc(O)c(OC)c1 [[6]-Gingerol] (10 µM)
0: [1] | [2] | [3] | [4] | [5] | [6] | [7] | [8] | [9] | [10]

COc1cc2c(Nc3ccc(NC(=O)c4ccccc4)cc3)ncnc2cc1OCCCN1CCOCC1 (10 µM)
0: [1] | [2] | [3] | [4] | [5] | [6] | [7] | [8] | [9] | [10]

COc1ccc2c(NC(=O)Nc3cccc(C(F)(F)F)n3)ccnc2c1 (10 µM)
0: [1] | [2] | [3] | [4] | [5] | [6] | [7] | [8] | [9] | [10]

Quoted at random: 3 compounds from above, in no set order.
Nc1nc(OCC2CCCCC2)c2[nH]cnc2n1 (10 µM)
0: [1] | [2] | [3] | [4] | [5] | [6] | [7] | [8] | [9] | [10]

COc1cc2c(Nc3ccc(NC(=O)c4ccccc4)cc3)ncnc2cc1OCCCN1CCOCC1 (10 µM)
0: [1] | [2] | [3] | [4] | [5] | [6] | [7] | [8] | [9] | [10]

COc1ccc2c(NC(=O)Nc3cccc(C(F)(F)F)n3)ccnc2c1 (10 µM)
0: [1] | [2] | [3] | [4] | [5] | [6] | [7] | [8] | [9] | [10]

Additional compounds.

Brc1c(Br)c(Br)c2n[nH]nc2c1Br (10 µM)
0: [1] | [2] | [3] | [4] | [5] | [6] | [7] | [8] | [9] | [10]

C=CC(=O)Nc1ccc2ncnc(Nc3cccc(Br)c3)c2c1 (10 µM)
0: [1] | [2] | [3] | [4] | [5] | [6] | [7] | [8] | [10]
4: [9]

CCc1nc(-c2cccc(C)c2)c(-c2ccnc(NC(=O)c3ccccc3)c2)s1 (10 µM)
0: [1] | [2] | [3] | [4] | [5] | [6] | [7] | [8] | [9] | [10]

CC(C)c1cnn2c(NCc3ccccc3)cc(NC[C@H]3CCNC[C@@H]3O)nc12 [Samuraciclib (hydrochloride)] (10 µM)
0: [1] | [2] | [3] | [4] | [5] | [6] | [7] | [8] | [9] | [10]

Nc1ncnc2c1c(-c1cccc(OCc3ccccc3)c1)cn2C1CC(CN2CCCC2)C1 (stereo not given) (2.5 µM)
0: [1] | [2] | [3] | [4] | [5] | [6] | [7] | [8] | [9] | [10]

CCOc1cc2ncc(-c3cc(N)nc(F)c3)n2cc1S(=O)(=O)C(C)(C)C (10 µM)
0: [1] | [2] | [3] | [4] | [5] | [6] | [7] | [8] | [9] | [10]

COc1cc(OC)c(F)c(COc2cnc(Nc3cnn(CCO)c3)nc2)c1F (2.5 µM)
0: [2] | [3] | [4] | [5] | [6] | [7] | [8] | [10]
1: [1] | [9]

CC(C)c1ccc2oc3nc(N)c(C(=O)O)cc3c(=O)c2c1 [Amlexanox] (10 µM)
0: [1] | [2] | [3] | [4] | [5] | [6] | [7] | [8] | [9] | [10]

NC(=O)c1ccc2nc(-c3ccc(Oc4ccc(Cl)cc4)cc3)[nH]c2c1 (10 µM)
0: [1] | [2] | [3] | [4] | [5] | [6] | [7] | [8] | [9] | [10]

COc1cc2ncnc(Nc3cccc(Cl)c3F)c2cc1OC(=O)N1CCN(C)C[C@H]1C [Zorifertinib] (10 µM)
0: [1] | [2] | [3] | [4] | [5] | [6] | [7] | [8] | [9] | [10]

C=CC(=O)N1C[C@H](Nc2ncnc3[nH]ccc23)CC[C@@H]1C [Ritlecitinib] (10 µM)
0: [1] | [2] | [3] | [4] | [5] | [6] | [7] | [8] | [9] | [10]

COc1cc(CCc2cc(-c3nc4ccc(N5CCN(C)CC5)cc4[nH]3)n[nH]2)cc(OC)c1 (10 µM)
0: [2] | [3] | [4] | [5] | [6] | [7] | [8] | [10]
1: [1]
2: [9]

COc1cc2nc(C)nc(N[C@H](C)c3cc(N)cc(C(F)(F)F)c3)c2cc1O[C@H]1CCOC1 (10 µM)
0: [1] | [2] | [3] | [4] | [5] | [6] | [7] | [8] | [9] | [10]

CCN(CC)CCCCNc1ncc2cc(-c3c(Cl)cccc3Cl)c(NC(=O)NC(C)(C)C)nc2n1 (2.5 µM)
0: [1] | [2] | [3] | [4] | [5] | [6] | [8] | [9] | [10]
1: [7]

CNc1nc(-c2ccc3c(N)n[nH]c3c2)cc(N2C[C@@H](C(=O)NC3CCCCC3)CC[C@H]2C)n1 (10 µM)
1: [10]
0: [1] | [2] | [3] | [4] | [5] | [6] | [7] | [8] | [9]

O=C1NC(=NCc2cccs2)S/C1=C\c1ccc2ncccc2c1 (10 µM)
0: [1] | [2] | [3] | [4] | [5] | [6] | [7] | [8] | [9] | [10]

COc1ccc(C=C(C#N)c2cccnc2)cc1OC (10 µM)
0: [1] | [2] | [3] | [4] | [5] | [6] | [7] | [8] | [9] | [10]

CC1(C)CC=C(c2nc(C3CC(C)(C)OC(C)(C)C3)ccc2NC(=O)c2nc(C#N)c[nH]2)CC1 [Edicotinib] (2.5 µM)
0: [1] | [2] | [3] | [4] | [5] | [6] | [7] | [8] | [9] | [10]

CC(C)(/C=C(\C#N)C(=O)N1CCC[C@@H](n2nc(-c3ccc(Oc4ccccc4)cc3F)c3c(N)ncnc32)C1)N1CCN(C2COC2)CC1 (2.5 µM)
0: [1] | [2] | [3] | [4] | [5] | [6] | [7] | [8] | [9] | [10]

CCn1cc(-c2ccnc3[nH]c(-c4cccc(CN(C)C)c4)cc23)c(-c2ccc(NC(=O)N(C)C)cc2)n1 (2.5 µM)
0: [1] | [2] | [3] | [4] | [5] | [6] | [7] | [8] | [9] | [10]

CCCS(=O)(=O)Nc1ccc(F)c(C(=O)c2c[nH]c3ncc(Cl)cc23)c1F (10 µM)
1: [9]
0: [1] | [2] | [3] | [4] | [5] | [6] | [7] | [8] | [10]

Cc1ncc(-c2ccnc(Nc3ccc(S(C)(=O)=O)cc3)n2)n1C(C)C (2.5 µM)
0: [2] | [3] | [4] | [5] | [6] | [7] | [8] | [9]
3: [1] | [10]

CCC(=O)N1CCN(c2ccc(-n3c(=O)ccc4cnc5ccc(-c6cnc7ccccc7c6)cc5c43)cc2C(F)(F)F)CC1 [Torin 1] (2 µM)
0: [1] | [2] | [3] | [4] | [5] | [6] | [7] | [8] | [9] | [10]

NC(=O)c1ccc(-c2nc(-c3ccccn3)c(-c3ccc4c(c3)OCO4)[nH]2)cc1 (10 µM)
0: [1] | [2] | [3] | [4] | [5] | [6] | [7] | [8] | [9] | [10]

CC(C)(C)n1nc(Cc2cccc3ccccc23)c2c(N)ncnc21 (10 µM)
0: [1] | [2] | [3] | [4] | [5] | [6] | [7] | [8] | [9] | [10]

O=C(c1ccc(-c2ccc(Cl)cc2)o1)N(Cc1ccccn1)c1ccc(N2CCNCC2)cc1 [MK2-IN-1 (hydrochloride)] (10 µM)
1: [2]
0: [1] | [3] | [4] | [5] | [6] | [7] | [8] | [9] | [10]

Cc1[nH]c(/C=C2\C(=O)Nc3ccc(S(=O)(=O)Cc4c(Cl)cccc4Cl)cc32)c(C)c1C(=O)N1CCC[C@@H]1CN1CCCC1 (2.5 µM)
0: [1] | [2] | [3] | [4] | [5] | [6] | [7] | [8] | [9] | [10]
